# No constants are given. Whether binding was seen depends on the method and setting. Some results given as binding are weak or reduced against the parent protein; the word gives no strength.
# Sequences of proteins named here, by UniProt entry; tags and fusion partners are left off. A change or cut given only in a name is not applied to a line headed by its entry.
# UniProt P29459: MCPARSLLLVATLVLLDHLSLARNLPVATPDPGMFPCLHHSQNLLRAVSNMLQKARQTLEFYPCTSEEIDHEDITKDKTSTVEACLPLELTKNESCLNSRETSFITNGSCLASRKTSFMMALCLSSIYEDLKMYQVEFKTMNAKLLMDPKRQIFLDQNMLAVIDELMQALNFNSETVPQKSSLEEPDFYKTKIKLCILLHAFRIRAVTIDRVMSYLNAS
# B1: BI-043 (VHH)
# VHH: EVQLVESGGGLVQAGGSLRLSCAASGRTYSTVAMGWFRQAPGKEREFVGAITWSVGNTAVADSVKGRFAISRDSAKNTVYLQMNSLKVEDTAVYYCASRTNIGAFNLFRENHYNYWGQGTQVTVSS
# B2: BI-044 (VHH)
# VHH: EVQLVESGGGLVQPGGSLRLSCKASGSIGSVTSMGWYRQAPGKQRDLVASADSNGRTTFQDFVQGRFTISRDSAKNTWYLQMNSLKPEDTAVYYCHLRGLQLTMGLYESWGQGTQVTVSS
# B3: BI-045 (VHH)
# VHH: EVQLVESGGGAVQAGGALNVSCAASGRAFSRTLMGWFRQAPGKEREFVAGISWVSVTPDYGNSVKGRFTISRDNAKSTVYLQMNSLKPEDTAVYYCAASQRYGTPRRRPNDYEYWGQGIQVTVSS
# B4: BI-046 (VHH)
# VHH: EVQLVESGGGSVQTGGSLRLSCKVSEGSFMRYNMGWFRQAPGKERDFVAAMSGALALIRYADSVKGRFTISRDNSKNTVYLDMNSLKPEDTAVYYCAADLEPQYWTKAGQRDTYDVWGQGTQVTVSS
# B5: BI-047 (VHH)
# VHH: EVQLVESGGGLVQAGGSLRLSCAASGSISSNIMGWFRQAPGKEREFVAVISRRGLILDYGDSVKGRFTMSRDNAKKAVYLQMNSLKPEDTAVYYCAVGKTTDRFSEIPSDYDYWGQGTQVTVSS
# B6: BI-004 (VHH)
# VHH: EVQLVESGGGLVQPGGSLRLSCAASGFSFSSSWMFWVRQPPGKGLEWVSTISPSGDYSRYADSVQGRFTISRDNTKNTLSLQMNSLKPEDTALYYCARDLRGTMRGQGTQVTVSS
# B7: BI-005 (VHH)
# VHH: QVQLVESGGGLVQPGGSLRLSCAASGFTFSNFVMKWYHQAPGKERDLVASIDTTHFTNYADSVKGRFTISRDNSKNTVYLQMNSLKSEDTAVYYCKVRRRDYEDYWGQGTQVTVSS
# B8: BI-006 (VHH)
# VHH: EVQLVESGGGLVQAGGSLRLSCAASGRTFSRYNMGWFRQAPGKEREFVAAIIWSGGVINYADSVKGRFTISRDNAKNTVYLQMNSLKPEDTARYYCAADDKYYDRIVRGTADYWGQGTQVTVSS
# B9: BI-007 (VHH)
# VHH: EVQLVESGGGLVQPGGSLRLSCVASGSIGSVVSWGWYRQAPGLERELVASDASGGRPNYQDSVKGRFTISRDSAKNTVYLQMNSLKPEDTAVYYCNLRGLQLDMGLYDSWGQGTQVTVSS
# B10: BI-008 (VHH)
# VHH: EVQLVESGGGLVQAGDSLKLSCATSGRPSRDYAMGWFRQAPGKKRDFVAGISSGGGFTNYADSVKARFTISKDNAKNTVYLQMNSLKPEDTAVYYCAAQSGTNYISRTSPPYWGQGTQVTVSS
# Molecular target: Interleukin-12 (IL-12) (human) (UniProt P29459)
# Experiment: phage panning of the immune-derived llama VHH library against IL-12
binder,measurement,value
B1,binding,binds
B2,binding,binds
B3,binding,binds
B4,binding,binds
B5,binding,binds
B6,binding,binds
B7,binding,binds
B8,binding,binds
B9,binding,binds
B10,binding,binds
